A negative result means that nothing was seen under these conditions. Tags and fusion partners may be left off the protein sequences shown. The comparison behind a weaker result is the experiment's own reference, which may not be listed here.
System: T1, CrdR (Agrobacterium sp. ATCC31749)
T1 sequence (looked up): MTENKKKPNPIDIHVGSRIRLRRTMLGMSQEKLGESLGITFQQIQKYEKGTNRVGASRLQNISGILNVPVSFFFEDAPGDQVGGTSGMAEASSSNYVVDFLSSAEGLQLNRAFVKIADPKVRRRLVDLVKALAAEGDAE
Experiment: EMSA
Settings: 4x EMSA buffer (15 mM HEPES, 100 mM NaCl, 1 mM EDTA, 5 mM MgCl2, 10% glycerol, 1 ug/mL poly dI-dC), 10 uL protein + 10 uL 0.5 uM DNA in water, room temperature 30 min, recombinant protein, residues 1-139, protein details: N-terminal 6xHis, probe letters rebuilt from the primers and the genome

[1] = 0.5 mg/mL CrdR, binds, smaller shift than crdP98

Sequence | binding result (0.25 mg/mL CrdR) | also measured
ACCCGGTCTATCCCATGAAGACGGACGATGTGCCGATGCGGCCGGGCGGCGAGGTGACGGCCAGTGTGCCGCCCCGGCCAGCCCGCAGCGTGACGGTCGCCGCGCCCGCGCAGCCGGAACCACAGCCGCTGCCGCCCGTTGCGGCTGTCAGTATTCCCTCGCCCACATCGGCGGGTGCGCCATCACTGCCTGCGCGACCTTCGGTGGGAGTCAGGCAGGTCGATGGTAGGCAGGTGAATAGCCATCCGGTGGAAAGCGGCCCGCAGCCATCGCAGGTTCCGCAGGTGTCCATTCCCTCGCCAGCTTGTCTCTCCGGTTCGGGAGCGGCACCGGGATGCAGGTGATCGGCGGAACCAGCGGGAAAGGCAGCGCCGAGGCGCATATCACGAAATTTCCGGGCCGAAATTCCGGACGGGGAAGAGAACGGAAAGTTTCTGGATG (double strand) [celAP] | no binding | –
AGGAGTTGATTTCATGCTGTTCCGCAATAAGCCTGACGCAAAATATAAAGGCGCATCCGTAAGATTAGCCTCCTATACTGTTCTCGGTGTGGTGGCGACGGTGTTTTCTTCTTCCGTGTTTCCGCCTGTATTCACCTCTCAAACGAGCCGTGCTCTGATCAATGCCCCCATTATTCCCTTGACGACGCCGATCAGCGGCGTTGTGAAAACATTGAACGACAGGGGTGGTGCCACCATCGAGAACGACAAGGTGGACAATACAACGCTGATCGGTCTGAAGGTTCAACTGGCGGCGCTCGACAATGAGATGCGCCAGAAGAACTCGATCGTTTCGGACTATGCCTCGCGGATCGACGACCTGAACAGGGATCTTTCCAGCCAGCAGGCGGCTTTGCTGCTGCGGACCGA (double strand) [crdP13] | – | binding result [1]: binds more weakly
CATCGCCCTAACCTCGCAGTTGGTCGGCTGCGCGTCGGGTTCCGGGCGCGCATCTGAACATCATTTTTGAAAATGAAGAACTGCCCTGCGGGTATAGGAGTGAACCCGCAGGGCTCGCCCAATCCATGCGGGTGTCAGGATTGAGTTCGCGAAATCTTGGTCTGGGGAACGGGCCCGTTCGCGGCATGCCTTGTGTCATCCAGTTGACGGTTCGGCGCTGCAAGCTCCGGCAGCCGTCCCTGGCGTGGCTGTTCCATTCCCATATAGGCGAAGATCCTGTTCCGCGACGATTCAAGGAGCGCCATGGCTGCCTGCGTGACAGACGGAATCTCCTTCGCGGAGTTCTTCGCATATTGGAGGAGATCAGCGGACGCTTCGTGAACGTAGTTTCGCGTCCTGTCCAGCCATTCGTTTGGCAGGGTCACATTGACCCATGTGCCGACCGA (double strand) [crdSP] | no binding | –
CATGCGGTCCTGACACTCGGAAAGGGTTGATATCTCGTTTCACTACTATTCGAAGAAATGAGTCGGCAATTCGACAGCGTCTAAACTTGTTTTACGACTGACGTATTCACTATGCAATTACAGGGGTTCCCGGTCAATTCTGGCGCCGAGCAAAACTCAAGGCGGGAAATACCGCAACGATCATCAAGATTGAAAAAATCAACCAGAAATACGTCCGATGTGTGTCGTAAGTAAATGCGTCATTAGACCCACCACTCAAAGTGGCGTCAACAATTCCCACCCGACCATAGTCCAGCCCGGCAATAATGCGGCCATAGGGGTCTGTGACGGCGGAAATTCCGGTATTGGCGCCGCGAATCACCGGCACGCCCGTCTCAACGGCGCGTACCCGTGCCTGCAGAAAATGCTGGTAGGGACCGGGTGTATCACCAAACCAGCCGTCATTCGTCACATTTAGGATCGCCGC (double strand) [crdRP] | no binding | –
CCAGATTTCTCAAGGGTCCTCCATCACGGTTGACCGCGACAACGACAAGAACCCGGTCGTGGCGCTTCGCGAAATCGCCGACGAGACGCTGTCTCCCGATGATCTGAAGGAAGACCTCATCCACTCGCTGCAGAAGCATGTGGAAGTGGACGAGCCCGAGCCCGATCCGGTCACGCTCGCCGCCTCCGCTGCCGATGGCGAAGACGATGATCAGCCGGAAACGGTTACTTTCGACCAGATGTCGGAAGAAGAACTGCTGGCCGGTATCGAAGGCCTTGTGCCGCCGGAAAAAAATGACGACTATTGATCCGGTTTTATGATGCCTTTGGCAGGCGGTGGTTACCGTCTGTCAATAGTTGCCGTCATAATCTGATCCCTATTGATGCAGCATTGTGCGCCGACCCCAAGGTTGGCGCGCTTTCTTTTTGTGGAATATCGCATGATG (double strand) [relAP] | no binding | –
CCATTTCAATACTGCGGGAGGAACGGTTTCTCAACAACAGAGGAGTTGATTTCATGCTGTTCCGCAATAAGCCTGACGCAAAATATAAAGGCGCATCCGTAAGATTAGCCTCCTATACTGTTCTCGGTGTGGTGGCGACGGTGTTTTCTTCTTCCGTGTTTCCGCCTGTATTCACCTCTCAAACGAGCCGTGCTCTGATCAATGCCCCCATTATTCCCTTGACGACGCCGATCAGCGGCGTTGTGAAAACATTGAACGACAGGGGTGGTGCCACCATCGAGAACGACAAGGTGGACAATACAACGCTGATCGGTCTGAAGGTTCAACTGGCGGCGCTCGACAATGAGATGCGCCAGAAGAACTCGATCGTTTCGGACTATGCCTCGCGGATCGACGACCTGAACAGGGATCTTTCCAGCCAGCAGGCGGCTTTGCTGCTGCGGACCGA (double strand) [crdP53] | – | binding result [1]: binds more weakly
TCACCAACACCAACTCTGGATTGACGGAGATTGTCGGCAGTCCAGGCACGAAGGCCAAGGTTCCCCCGCCTGCGAGAAGCGCCACGGAAGGGGGCAGTCCCAAGCGATGCGCAATATAATGCAGCACGATAATGGCAAGAAACATCGCGATCACGAGTTCGAAGAGATGCGTGCCGTCCATATGTGTCCCCAATCCAGCTTGGACCGACATCAAATGACGAGTTTTGGGAAAAAGCAACGGCACTTCCATACCGACTTGAGGCGCTAACGCGCTTGCGGTCTGGAACTTGACCTACCCGGCGGTAGGTCTTTGCGACGGCATGCCGTCGCCCCCATAAGTTGCATATGCGAAATGGCGAAGCCAGGGTGTGTTTTCCAAGCACGCCATTTAAAAGGCAATTCTAATATGAAACGATTGAAATTTCGTCTTTCAAATTCTCTTCGATGAATTTTCGCGTCCCCAAAATCGTCAGATGCCTATTTGTTGGTCAAAATTGGAAAATTAGTTAATGCAATTTTTACTATGTTGCGGCGCACAAGAACTTCATTCACCATTTCAATACTGCGGGAGGAACGGTTTCTCAACAACAGAGGAGTTGATTTCATG (double strand) [crdP] | – | binding result (0.25 and 0.5 mg/mL CrdR): binds
TTAATGCAATTTTTACTATGTTGCGGCGCACAAGAACTTCATTCACCATTTCAATACTGCGGGAGGAACGGTTTCTCAACAACAGAGGAGTTGATTTCATGCTGTTCCGCAATAAGCCTGACGCAAAATATAAAGGCGCATCCGTAAGATTAGCCTCCTATACTGTTCTCGGTGTGGTGGCGACGGTGTTTTCTTCTTCCGTGTTTCCGCCTGTATTCACCTCTCAAACGAGCCGTGCTCTGATCAATGCCCCCATTATTCCCTTGACGACGCCGATCAGCGGCGTTGTGAAAACATTGAACGACAGGGGTGGTGCCACCATCGAGAACGACAAGGTGGACAATACAACGCTGATCGGTCTGAAGGTTCAACTGGCGGCGCTCGACAATGAGATGCGCCAGAAGAACTCGATCGTTTCGGACTATGCCTCGCGGATCGACGACCTGAACAGGGATCTTTCCAGCCAGCAGGCGGCTTTGCTGCTGCGGACCGA (double strand) [crdP98] | – | binding result (0.25 and 0.5 mg/mL CrdR, greatest shift of 98/53/13): binds

Source: paper PMC4327974
